Among the data in the supplement of paper PMC10849652 are log2 fold change values, retold here.

Protein sequences, listed by entry. Tags and fused reporters are not part of them. Lines headed by an entry give the natural chain unless they say otherwise; changes in a name come on top.
UniProt Q5JUR7: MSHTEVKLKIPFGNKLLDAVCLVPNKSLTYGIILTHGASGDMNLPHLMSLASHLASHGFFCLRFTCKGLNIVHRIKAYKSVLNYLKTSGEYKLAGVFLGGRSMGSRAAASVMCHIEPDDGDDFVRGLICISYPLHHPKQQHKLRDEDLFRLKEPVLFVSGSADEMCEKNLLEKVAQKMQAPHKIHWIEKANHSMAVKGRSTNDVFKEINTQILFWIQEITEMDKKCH
UniProt Q17R31: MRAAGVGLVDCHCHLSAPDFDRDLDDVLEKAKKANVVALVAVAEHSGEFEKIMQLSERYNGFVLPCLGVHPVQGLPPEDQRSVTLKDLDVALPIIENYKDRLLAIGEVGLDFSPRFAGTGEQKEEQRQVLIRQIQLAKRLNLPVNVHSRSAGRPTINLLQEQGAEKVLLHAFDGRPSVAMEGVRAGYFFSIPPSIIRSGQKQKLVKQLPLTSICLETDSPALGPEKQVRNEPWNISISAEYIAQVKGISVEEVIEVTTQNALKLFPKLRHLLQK
UniProt P37802: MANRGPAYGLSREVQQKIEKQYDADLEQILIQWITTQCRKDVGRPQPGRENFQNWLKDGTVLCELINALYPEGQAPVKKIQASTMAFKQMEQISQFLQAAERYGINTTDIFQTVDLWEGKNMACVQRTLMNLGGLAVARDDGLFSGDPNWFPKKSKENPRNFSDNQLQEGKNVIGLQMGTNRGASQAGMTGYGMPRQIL
UniProt Q9Y6J9: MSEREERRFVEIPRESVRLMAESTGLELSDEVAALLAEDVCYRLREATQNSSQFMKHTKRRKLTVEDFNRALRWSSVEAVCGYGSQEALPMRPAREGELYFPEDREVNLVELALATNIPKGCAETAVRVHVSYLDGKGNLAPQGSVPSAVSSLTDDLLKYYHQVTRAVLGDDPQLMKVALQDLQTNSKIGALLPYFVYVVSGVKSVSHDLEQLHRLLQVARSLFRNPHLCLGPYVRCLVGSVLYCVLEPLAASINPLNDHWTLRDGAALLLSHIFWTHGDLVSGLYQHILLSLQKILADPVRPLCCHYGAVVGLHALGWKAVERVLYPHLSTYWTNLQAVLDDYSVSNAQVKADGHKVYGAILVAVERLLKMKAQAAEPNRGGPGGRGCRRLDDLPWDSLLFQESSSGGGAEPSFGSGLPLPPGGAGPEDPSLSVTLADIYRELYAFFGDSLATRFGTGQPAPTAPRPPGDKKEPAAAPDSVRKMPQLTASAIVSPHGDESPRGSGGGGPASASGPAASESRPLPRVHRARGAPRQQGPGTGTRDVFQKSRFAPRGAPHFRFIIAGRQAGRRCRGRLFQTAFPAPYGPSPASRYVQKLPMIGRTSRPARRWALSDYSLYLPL
UniProt Q6P1N9: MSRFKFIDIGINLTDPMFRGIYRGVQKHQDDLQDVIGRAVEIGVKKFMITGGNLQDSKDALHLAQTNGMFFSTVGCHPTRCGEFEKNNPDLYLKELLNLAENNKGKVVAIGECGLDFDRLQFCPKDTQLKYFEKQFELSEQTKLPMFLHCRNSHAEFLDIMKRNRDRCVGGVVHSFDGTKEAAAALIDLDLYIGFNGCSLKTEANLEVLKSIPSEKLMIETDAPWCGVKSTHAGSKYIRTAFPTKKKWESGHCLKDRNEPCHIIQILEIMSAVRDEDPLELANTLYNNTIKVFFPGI
UniProt Q7L7X3: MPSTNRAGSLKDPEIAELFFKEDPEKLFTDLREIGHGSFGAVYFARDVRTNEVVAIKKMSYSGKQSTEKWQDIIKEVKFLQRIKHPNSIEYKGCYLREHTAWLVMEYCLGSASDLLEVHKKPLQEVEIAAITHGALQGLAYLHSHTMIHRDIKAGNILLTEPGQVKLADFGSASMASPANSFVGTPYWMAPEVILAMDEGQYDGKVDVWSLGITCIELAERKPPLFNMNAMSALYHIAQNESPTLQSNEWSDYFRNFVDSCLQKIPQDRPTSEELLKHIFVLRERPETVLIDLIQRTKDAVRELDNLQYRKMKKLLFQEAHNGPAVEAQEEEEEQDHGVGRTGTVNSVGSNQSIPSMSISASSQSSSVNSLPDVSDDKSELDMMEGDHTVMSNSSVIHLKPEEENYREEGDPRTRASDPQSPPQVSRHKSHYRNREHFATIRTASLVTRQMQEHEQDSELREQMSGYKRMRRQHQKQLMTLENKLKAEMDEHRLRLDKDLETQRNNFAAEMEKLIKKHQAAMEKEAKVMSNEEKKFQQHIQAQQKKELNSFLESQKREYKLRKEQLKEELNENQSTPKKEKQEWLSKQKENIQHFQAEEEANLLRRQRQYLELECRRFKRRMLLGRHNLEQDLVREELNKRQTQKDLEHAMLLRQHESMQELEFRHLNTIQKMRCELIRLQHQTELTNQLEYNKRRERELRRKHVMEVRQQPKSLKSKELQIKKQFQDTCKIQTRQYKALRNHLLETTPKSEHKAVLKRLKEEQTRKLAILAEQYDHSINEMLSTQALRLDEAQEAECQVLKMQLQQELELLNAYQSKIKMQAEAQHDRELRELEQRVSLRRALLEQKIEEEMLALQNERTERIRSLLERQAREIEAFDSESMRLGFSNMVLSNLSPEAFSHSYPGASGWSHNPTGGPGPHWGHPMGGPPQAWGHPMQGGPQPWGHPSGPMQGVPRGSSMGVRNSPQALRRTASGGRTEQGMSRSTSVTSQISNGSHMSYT
UniProt Q12788: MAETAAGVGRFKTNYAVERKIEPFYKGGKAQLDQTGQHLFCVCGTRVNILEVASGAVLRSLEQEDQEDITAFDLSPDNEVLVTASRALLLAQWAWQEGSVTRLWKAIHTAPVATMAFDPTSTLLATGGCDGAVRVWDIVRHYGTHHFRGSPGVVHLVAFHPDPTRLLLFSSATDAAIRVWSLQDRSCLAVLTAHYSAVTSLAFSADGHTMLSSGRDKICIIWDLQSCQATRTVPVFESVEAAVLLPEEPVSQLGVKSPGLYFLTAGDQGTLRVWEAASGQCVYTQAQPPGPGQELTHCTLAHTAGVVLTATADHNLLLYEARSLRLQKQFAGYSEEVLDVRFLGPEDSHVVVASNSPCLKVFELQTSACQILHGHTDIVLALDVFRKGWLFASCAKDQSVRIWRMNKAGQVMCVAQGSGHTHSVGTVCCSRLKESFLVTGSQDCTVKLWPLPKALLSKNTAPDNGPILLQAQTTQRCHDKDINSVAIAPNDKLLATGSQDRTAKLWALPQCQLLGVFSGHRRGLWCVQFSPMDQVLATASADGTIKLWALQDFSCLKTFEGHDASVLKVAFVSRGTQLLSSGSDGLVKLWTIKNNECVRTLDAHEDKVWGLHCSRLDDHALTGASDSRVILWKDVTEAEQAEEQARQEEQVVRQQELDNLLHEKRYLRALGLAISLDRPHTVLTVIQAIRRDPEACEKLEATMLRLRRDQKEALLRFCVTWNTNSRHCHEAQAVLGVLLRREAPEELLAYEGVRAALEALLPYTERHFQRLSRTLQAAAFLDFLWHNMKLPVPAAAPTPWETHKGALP
UniProt Q15813: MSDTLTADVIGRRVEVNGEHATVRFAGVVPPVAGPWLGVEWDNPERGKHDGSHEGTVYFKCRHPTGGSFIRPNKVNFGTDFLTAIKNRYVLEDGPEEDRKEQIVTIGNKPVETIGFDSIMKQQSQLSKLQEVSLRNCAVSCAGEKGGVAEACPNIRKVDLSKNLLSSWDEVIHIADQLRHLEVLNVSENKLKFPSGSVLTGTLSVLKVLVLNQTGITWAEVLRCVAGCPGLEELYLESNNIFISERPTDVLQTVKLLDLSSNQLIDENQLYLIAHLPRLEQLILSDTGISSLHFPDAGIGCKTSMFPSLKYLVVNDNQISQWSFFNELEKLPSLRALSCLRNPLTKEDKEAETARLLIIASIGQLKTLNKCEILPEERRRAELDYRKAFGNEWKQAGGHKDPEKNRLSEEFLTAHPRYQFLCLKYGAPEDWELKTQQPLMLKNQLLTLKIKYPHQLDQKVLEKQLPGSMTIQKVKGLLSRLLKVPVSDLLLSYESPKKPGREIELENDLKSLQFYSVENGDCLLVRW
UniProt Q9P2M4: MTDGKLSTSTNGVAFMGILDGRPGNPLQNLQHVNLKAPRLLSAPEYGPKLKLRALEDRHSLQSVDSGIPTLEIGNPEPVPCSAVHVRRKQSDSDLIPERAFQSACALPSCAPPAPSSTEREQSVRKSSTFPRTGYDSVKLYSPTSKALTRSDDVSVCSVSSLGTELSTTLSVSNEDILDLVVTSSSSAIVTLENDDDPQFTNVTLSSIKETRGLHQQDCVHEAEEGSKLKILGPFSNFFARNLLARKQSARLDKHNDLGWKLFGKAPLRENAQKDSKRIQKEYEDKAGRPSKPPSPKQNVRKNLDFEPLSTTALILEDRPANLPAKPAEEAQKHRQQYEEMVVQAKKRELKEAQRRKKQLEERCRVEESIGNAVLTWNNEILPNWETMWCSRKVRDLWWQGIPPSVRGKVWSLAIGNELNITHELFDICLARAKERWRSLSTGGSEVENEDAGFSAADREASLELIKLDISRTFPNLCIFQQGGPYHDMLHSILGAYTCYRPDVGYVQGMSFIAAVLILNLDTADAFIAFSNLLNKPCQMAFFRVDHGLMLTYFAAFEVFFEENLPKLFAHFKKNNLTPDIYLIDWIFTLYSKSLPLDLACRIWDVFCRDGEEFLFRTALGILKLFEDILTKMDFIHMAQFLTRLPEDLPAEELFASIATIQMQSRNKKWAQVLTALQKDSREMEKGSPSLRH
UniProt Q92734, whole entry, looked up: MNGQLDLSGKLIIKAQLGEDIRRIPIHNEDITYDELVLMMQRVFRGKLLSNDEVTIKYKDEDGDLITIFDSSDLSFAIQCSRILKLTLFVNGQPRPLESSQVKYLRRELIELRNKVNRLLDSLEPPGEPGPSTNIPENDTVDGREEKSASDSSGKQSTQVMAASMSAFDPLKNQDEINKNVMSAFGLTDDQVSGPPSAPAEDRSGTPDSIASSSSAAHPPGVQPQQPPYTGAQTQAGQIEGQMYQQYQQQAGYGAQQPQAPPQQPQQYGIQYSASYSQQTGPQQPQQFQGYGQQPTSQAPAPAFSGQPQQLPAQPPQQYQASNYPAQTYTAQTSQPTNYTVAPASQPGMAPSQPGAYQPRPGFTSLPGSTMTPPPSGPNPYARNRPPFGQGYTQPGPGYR
UniProt Q9UP52: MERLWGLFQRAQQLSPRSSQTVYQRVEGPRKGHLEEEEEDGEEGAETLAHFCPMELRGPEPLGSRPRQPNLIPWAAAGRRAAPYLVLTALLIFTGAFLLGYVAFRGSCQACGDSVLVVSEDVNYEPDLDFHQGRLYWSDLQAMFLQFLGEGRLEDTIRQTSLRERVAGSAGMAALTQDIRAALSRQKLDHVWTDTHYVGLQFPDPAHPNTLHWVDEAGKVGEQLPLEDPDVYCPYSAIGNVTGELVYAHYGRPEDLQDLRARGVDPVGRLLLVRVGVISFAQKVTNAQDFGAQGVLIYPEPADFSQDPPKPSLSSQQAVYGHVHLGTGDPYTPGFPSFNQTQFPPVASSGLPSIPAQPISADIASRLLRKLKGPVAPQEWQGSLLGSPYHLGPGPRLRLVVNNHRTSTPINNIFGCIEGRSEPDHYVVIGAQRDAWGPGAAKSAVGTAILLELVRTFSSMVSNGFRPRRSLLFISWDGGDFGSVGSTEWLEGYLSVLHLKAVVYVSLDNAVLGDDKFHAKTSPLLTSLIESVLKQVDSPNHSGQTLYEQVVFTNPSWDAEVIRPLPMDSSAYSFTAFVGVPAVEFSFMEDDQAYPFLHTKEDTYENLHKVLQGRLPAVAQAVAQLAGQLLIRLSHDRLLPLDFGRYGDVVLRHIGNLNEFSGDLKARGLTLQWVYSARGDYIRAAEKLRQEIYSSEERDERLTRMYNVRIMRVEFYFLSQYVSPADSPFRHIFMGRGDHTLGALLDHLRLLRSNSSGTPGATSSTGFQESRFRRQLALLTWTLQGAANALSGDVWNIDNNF
UniProt Q9NUY8: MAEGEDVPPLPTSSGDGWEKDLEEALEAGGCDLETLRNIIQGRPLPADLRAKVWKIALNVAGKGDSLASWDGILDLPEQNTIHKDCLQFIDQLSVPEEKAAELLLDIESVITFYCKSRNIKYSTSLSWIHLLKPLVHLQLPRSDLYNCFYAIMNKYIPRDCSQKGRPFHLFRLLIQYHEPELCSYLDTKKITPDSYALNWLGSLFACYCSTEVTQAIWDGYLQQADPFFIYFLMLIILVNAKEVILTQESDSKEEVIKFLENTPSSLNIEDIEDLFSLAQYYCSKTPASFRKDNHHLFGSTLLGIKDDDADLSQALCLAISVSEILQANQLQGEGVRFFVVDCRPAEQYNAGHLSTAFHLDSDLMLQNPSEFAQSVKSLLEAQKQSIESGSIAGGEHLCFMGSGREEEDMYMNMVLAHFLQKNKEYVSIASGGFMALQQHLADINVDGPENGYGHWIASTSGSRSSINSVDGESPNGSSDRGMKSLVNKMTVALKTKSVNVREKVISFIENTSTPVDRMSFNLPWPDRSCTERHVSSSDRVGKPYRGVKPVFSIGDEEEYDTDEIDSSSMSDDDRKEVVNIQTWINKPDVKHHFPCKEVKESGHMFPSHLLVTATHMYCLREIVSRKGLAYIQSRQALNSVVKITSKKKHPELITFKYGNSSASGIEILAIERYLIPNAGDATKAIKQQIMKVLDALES

The list shows a part of the results.

Compound in the assay: Cc1cn(-c2cc(NC(=O)c3ccc(C)c(Nc4nccc(-c5cccnc5)n4)c3)cc(C(F)(F)F)c2)cn1 [nilotinib]
The assay can be described thus: log2 fold change, soluble protein after heating vs DMSO (PISA); higher = thermal stabilisation; K562 lysate, 10 uM; active = over 0.2 and 3.5 SD of the protein, either way, in both replicates (recomputed). Put shortly: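 Log-two fold change in thermal stability relative to solvent controls is reported from duplicates. For each sample, crude K562 extract from dounce-homogenised pellets in PBS pH 7.4 with 1 mM MgCl2, at 1 mg/mL protein, was treated with 10 μM compound for 30 min. Aliquots heated for 3 min across 48°C-58°C were pooled, brought to 0.5% NP-40 at 4°C and cleared at 21,000xg for 90 min. The supernatant was quantified by TMTpro 16plex LC-MS/MS with channel sums equalised.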
In the case of TCAF1 (UniProt Q9Y4C2), the log2 fold change is inactive: 0.003.

In the case of TARS1 (UniProt P26639), the log2 fold change is inactive: -0.007.

As for TEX30 (UniProt Q5JUR7), the log2 fold change was inactive: -0.036.

Take TATDN3 isoform 3 (UniProt Q17R31): the log2 fold change is inactive: 0.002.

As to TAGLN2 isoform 2 (UniProt P37802), the log2 fold change is inactive: 0.022.

Regarding TAF6L (UniProt Q9Y6J9), the log2 fold change is inactive: -0.023.

As for TATDN1 (UniProt Q6P1N9), the log2 fold change is inactive: -0.047.

Regarding TAOK1 (UniProt Q7L7X3), the log2 fold change is inactive: -0.016.

For the target TBCB (UniProt Q99426), the log2 fold change was inactive: 0.099.

For TFCP2 (UniProt Q12800), the log2 fold change was inactive: 0.042.

For the target TBL3 (UniProt Q12788), the log2 fold change was inactive: -0.009.

Turning to TARBP2 (UniProt Q15633), the log2 fold change is inactive: 0.003.

Turning to TFIP11 (UniProt Q9UBB9), the log2 fold change was inactive: 0.004.

Take TBCE (UniProt Q15813): the log2 fold change is inactive: -0.001.

For the target TBC1D14 (UniProt Q9P2M4), the log2 fold change was inactive: 0.024.

Turning to TFG (UniProt Q92734), the log2 fold change is inactive: -0.015.

For the target TCERG1 (UniProt O14776), the log2 fold change is inactive: -0.023.

For the target TDRD3 isoform 3 (UniProt Q9H7E2), the log2 fold change was inactive: 0.261.

With TFR2 (UniProt Q9UP52), the log2 fold change is inactive: 0.025.

With TBC1D23 (UniProt Q9NUY8), the log2 fold change is inactive: 0.013.

Turning to TEX10 (UniProt Q9NXF1), the log2 fold change is inactive: -0.148.

Take TBC1D2 (UniProt Q9BYX2): the log2 fold change was inactive: -0.004.

With TAF7 (UniProt Q15545), the log2 fold change is inactive: 0.003.
